The numbers were not newly measured in patent US5846980A, “N-(benzhydryloxyalkyl)-4-(carboxy/carbamoyl methyl)-piperidine derivatives as antidepressants” (Cooperation Pharmaceutique Francaise, priority 1994, dated 1998), which cites them from elsewhere.

Each structure is given as a SMILES string.

For this data set, the system named is noradrenaline re-uptake.

As for `CN1Cc2c(N)cccc2C(c2ccccc2)C1` (stereo not shown) [1,2,3,4-tetrahydro-2-methyl-4-phenyl-8-isoquinolinamine], the “inhibition of noradrenaline re-uptake” value was “inhibit dopamine and noradrenaline re-uptake”.
